Data on two substances can be found in publication PMC12667445, “Targeting RBM10‐Repressed RORB Activity in Liquid Condensates Inhibits Lysosomal Biogenesis and Neuroblastoma Progression via Affecting NF‐κB Signaling” (Advanced Science, 2025).

By UniProt entry, the sequences of proteins in these tests, tags left out. Where a name states a change or a piece, a line headed by the entry shows the natural chain unless it says otherwise.
UniProt P98175: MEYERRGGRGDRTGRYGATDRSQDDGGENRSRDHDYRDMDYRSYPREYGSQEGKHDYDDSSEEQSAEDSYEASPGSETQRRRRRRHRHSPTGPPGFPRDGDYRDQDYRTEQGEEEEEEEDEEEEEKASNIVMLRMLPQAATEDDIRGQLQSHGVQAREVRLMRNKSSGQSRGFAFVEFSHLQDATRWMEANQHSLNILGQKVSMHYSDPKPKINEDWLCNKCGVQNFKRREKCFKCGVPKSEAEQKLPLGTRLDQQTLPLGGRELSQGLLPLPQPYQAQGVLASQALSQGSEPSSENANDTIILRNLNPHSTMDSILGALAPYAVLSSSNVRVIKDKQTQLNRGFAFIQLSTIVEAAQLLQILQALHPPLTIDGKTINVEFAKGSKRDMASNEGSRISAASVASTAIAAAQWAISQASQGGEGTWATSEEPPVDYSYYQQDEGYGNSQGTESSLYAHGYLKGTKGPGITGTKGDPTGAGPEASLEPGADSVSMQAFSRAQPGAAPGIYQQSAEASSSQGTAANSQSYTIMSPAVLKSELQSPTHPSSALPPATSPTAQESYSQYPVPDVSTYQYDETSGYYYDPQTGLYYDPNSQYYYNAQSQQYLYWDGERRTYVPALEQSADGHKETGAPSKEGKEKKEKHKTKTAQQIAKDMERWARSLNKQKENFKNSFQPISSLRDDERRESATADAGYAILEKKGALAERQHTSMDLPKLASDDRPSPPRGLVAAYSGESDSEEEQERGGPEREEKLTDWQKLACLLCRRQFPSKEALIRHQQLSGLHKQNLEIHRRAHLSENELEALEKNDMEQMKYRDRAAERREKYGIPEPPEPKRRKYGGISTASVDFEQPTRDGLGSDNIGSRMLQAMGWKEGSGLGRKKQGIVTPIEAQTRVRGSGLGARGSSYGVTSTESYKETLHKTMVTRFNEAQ

Assay [1] has as its target RORB with mutation in AF2 domain, BiFC construct (UniProt Q92753). As to the kind of experiment: split reporter; BiFC in SK-N-BE(2) cells; fluorescence within the nucleus.
The target in the next assay is T1, RORB, BiFC construct (UniProt Q92753).
T1 sequence: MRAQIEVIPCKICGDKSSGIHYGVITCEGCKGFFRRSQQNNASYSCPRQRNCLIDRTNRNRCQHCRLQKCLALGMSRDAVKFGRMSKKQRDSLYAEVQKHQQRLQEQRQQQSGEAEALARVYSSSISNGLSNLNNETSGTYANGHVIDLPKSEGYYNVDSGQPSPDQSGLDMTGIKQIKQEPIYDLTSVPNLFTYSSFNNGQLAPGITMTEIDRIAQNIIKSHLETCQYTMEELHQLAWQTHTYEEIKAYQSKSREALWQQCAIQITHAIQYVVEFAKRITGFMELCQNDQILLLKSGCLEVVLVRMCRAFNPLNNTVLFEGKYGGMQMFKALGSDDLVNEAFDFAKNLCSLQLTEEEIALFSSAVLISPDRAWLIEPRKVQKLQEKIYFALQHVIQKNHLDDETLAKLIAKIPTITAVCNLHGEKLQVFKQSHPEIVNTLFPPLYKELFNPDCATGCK
Described as above.

Results are given in words; binding and its absence hold for the method and conditions named. In cells and extracts the contact can be indirect.

On to “RBM10, BiFC construct (from UniProt P98175 1-930)”, for which the binding result in assay [1] is given as “no binding”.

As for “RBM10 with mutation in RRM2 domain, BiFC construct (from UniProt P98175)”, in the assay with RORB, BiFC construct, the binding entry is on record as “no binding”.
